Results taken from paper doi:10.1101/2024.02.23.581798.

Biological target: TbSETD fused to a C-terminal HA tag (TbSETD.HA) (Trypanosoma brucei) (UniProt Q38DP6)
Assay: affinity purification with mass spectrometry

Substance	binding
acyl carrier protein (ACP, Tb927.3.860) (from UniProt Q57WW9)	binds
putative potassium voltage-gated channel (Tb927.10.16170) (from UniProt Q387P8)	binds

These are yes or no findings as the source states them, for the method shown. Binding seen in cells or lysates may run through a third protein. A yes stands for co-enrichment or nearness to the bait. Other partners may have been found.
